Reference: publication PMC9344665
Results are given in words; binding and its absence hold for the method and conditions named. Some results given as binding are weak or reduced against the parent protein; the word gives no strength. Tags and fused reporters may be left off the sequences shown.

Target: T1, FARSA R475Q variant (human) (UniProt Q9Y285)
T1 sequence: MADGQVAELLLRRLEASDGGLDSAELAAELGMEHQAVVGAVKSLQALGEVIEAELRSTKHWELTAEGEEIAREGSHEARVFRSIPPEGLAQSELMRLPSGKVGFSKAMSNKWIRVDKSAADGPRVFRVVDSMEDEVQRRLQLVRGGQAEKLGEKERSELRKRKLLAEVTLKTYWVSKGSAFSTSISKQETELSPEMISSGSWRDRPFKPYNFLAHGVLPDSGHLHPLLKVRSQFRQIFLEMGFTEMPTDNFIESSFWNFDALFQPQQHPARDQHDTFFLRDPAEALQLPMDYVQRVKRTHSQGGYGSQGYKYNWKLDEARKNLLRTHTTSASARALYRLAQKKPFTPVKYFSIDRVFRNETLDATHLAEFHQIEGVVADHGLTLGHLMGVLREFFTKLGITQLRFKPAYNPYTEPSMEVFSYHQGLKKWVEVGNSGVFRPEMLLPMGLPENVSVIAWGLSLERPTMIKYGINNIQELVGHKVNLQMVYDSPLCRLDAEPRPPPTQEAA
Test: co-purification of coexpressed proteins (Ni-NTA, heparin, size-exclusion chromatography); His6-FARSA and untagged FARSB coexpressed in E. coli Rosetta (DE3); lysate on Ni-NTA (20 mM Tris-HCl pH 8.5, 500 mM NaCl), His6-tag removed with HRV3C, HiTrap Heparin HP with a NaCl gradient, then SEC in 20 mM HEPES-NaOH pH 7.5, 150 mM NaCl; SDS-PAGE of fractions

binding: binds
B1: FARSB (β subunit of cytosolic phenylalanyl-tRNA synthetase FARS1), no affinity tag (enzyme, UniProt Q9NSD9 1-584)
chain: MPTVSVKRDLLFQALGRTYTDEEFDELCFEFGLELDEITSEKEIISKEQGNVKAAGASDVVLYKIDVPANRYDLLCLEGLVRGLQVFKERIKAPVYKRVMPDGKIQKLIITEETAKIRPFAVAAVLRNIKFTKDRYDSFIELQEKLHQNICRKRALVAIGTHDLDTLSGPFTYTAKRPSDIKFKPLNKTKEYTACELMNIYKTDNHLKHYLHIIENKPLYPVIYDSNGVVLSMPPIINGDHSRITVNTRNIFIECTGTDFTKAKIVLDIIVTMFSEYCENQFTVEAAEVVFPNGKSHTFPELAYRKEMVRADLINKKVGIRETPENLAKLLTRMYLKSEVIGDGNQIEIEIPPTRADIIHACDIVEDAAIAYGYNNIQMTLPKTYTIANQFPLNKLTELLRHDMAAAGFTEALTFALCSQEDIADKLGVDISATKAVHISNPKTAEFQVARTTLLPGLLKTIAANRKMPLPLKLFEISDIVIKDSNTDVGAKNYRHLCAVYYNKNPGFEIIHGLLDRIMQLLDVPPGEDKGGYVIKASEGPAFFPGRCAEIFARGQSVGKLGVLHPDVITKFELTMPCSSLEIN
